Entries after “also recorded” stand apart in the source; their conditions may differ. At least one compound was matched to its structure with a doubt left.
System: dorsal root potential (DRP)
Test: Evoked dorsal root potential (DRP) recordings in isolated spinal cord
Set-up: species or system mouse
Conditions: control mice; bicuculline added to ACSF

## CN1CCc2cc3c(cc2[C@H]1[C@@H]1OC(=O)c2c1ccc1c2OCO1)OCO3 [bicuculline]
  high-threshold DRPs: facilitating high-threshold DRPs
  low-threshold evoked DRP: almost entirely inhibited; also recorded: inhibits the low-threshold evoked DRP

Source: patent publication US11547706B2, “Methods and compositions for reducing tactile dysfunction and anxiety associated with autism spectrum disorder, Rett syndrome, and Fragile X syndrome” (President and Fellows of Harvard College, priority 2016, dated 2023)
